Results are given in words; binding and its absence hold for the method and conditions named. Binding seen in cells or lysates may run through a third protein. These calls come from enrichment with a bait or labelling near it, and not all partners need be listed.
Molecular target: TXNDC12, bait of the Co-IP coupled with mass spectrometry (UniProt O95881)
Assay: affinity purification with mass spectrometry; Co-IP of TXNDC12; interacting proteins separated on SDS-polyacrylamide gels, selected bands excised, digested with trypsin, tandem mass spectrometry

Sequences of proteins named here, by UniProt entry; tags and fusion partners are left off. Residues count along the entry.
UniProt O95881, residues 27-172: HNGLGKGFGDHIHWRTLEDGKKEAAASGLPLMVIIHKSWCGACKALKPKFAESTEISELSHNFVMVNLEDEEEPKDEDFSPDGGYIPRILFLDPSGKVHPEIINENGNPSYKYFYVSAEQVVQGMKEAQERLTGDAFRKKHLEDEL
UniProt P45974: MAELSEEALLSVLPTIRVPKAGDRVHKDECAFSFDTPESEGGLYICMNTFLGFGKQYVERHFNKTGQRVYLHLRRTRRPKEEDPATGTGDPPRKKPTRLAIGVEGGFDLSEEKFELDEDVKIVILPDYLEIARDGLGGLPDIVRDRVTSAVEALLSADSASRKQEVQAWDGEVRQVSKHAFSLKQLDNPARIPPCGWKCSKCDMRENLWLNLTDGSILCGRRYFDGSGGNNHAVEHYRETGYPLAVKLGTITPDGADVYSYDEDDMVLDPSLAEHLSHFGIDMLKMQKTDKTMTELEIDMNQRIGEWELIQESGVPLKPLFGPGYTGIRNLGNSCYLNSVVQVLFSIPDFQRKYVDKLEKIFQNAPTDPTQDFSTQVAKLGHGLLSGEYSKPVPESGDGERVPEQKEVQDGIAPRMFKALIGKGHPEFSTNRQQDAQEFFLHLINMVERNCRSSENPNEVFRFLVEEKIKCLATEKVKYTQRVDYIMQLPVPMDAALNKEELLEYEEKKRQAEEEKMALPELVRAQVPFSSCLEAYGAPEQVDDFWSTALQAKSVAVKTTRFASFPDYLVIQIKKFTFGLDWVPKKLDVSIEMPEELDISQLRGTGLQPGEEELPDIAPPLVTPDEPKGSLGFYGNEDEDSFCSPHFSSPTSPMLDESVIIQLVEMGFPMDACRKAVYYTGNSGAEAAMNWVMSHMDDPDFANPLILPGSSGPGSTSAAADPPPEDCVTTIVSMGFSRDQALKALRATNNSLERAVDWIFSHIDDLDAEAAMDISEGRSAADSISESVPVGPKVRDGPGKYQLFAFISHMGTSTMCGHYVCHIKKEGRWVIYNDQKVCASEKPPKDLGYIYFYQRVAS

USP5, identified by mass spectrometry in the TXNDC12 co-immunoprecipitate (from UniProt P45974 1-858) (enzyme)
binding: binds

Source: paper PMC12411639
